Measurements reported in paper PMC3068181.
No constants are given. Whether binding was seen depends on the method and setting. Binding seen in cells or lysates may run through a third protein. Some binding calls cover weakened binding; strength is not graded here.

Protein sequences, listed by entry. Tags and fused reporters are not part of them.
UniProt Q9UDY8: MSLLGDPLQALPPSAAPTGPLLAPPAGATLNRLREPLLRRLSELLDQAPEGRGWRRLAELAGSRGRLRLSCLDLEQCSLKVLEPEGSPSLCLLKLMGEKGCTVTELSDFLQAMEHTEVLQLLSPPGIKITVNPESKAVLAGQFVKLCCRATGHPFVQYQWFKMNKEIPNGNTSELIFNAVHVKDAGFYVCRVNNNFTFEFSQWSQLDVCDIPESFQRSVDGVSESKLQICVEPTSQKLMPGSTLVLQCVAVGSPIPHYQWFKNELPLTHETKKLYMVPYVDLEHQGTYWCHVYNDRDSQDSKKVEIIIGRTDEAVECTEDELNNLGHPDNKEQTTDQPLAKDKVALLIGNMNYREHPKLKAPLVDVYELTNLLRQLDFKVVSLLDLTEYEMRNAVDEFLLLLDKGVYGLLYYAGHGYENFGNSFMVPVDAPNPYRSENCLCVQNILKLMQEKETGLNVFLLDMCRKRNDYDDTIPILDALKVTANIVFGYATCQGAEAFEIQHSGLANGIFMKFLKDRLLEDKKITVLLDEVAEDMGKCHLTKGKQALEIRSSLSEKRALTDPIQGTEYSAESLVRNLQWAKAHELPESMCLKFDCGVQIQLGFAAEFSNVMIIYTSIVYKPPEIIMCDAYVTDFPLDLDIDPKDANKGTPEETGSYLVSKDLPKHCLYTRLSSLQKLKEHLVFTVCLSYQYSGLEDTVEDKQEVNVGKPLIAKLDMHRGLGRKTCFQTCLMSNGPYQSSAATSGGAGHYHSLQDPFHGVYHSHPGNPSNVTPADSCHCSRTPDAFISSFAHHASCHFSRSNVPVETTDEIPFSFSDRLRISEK

Target: T1, BCL10 (human (endogenous in Jurkat)) (UniProt O95999)
T1 sequence: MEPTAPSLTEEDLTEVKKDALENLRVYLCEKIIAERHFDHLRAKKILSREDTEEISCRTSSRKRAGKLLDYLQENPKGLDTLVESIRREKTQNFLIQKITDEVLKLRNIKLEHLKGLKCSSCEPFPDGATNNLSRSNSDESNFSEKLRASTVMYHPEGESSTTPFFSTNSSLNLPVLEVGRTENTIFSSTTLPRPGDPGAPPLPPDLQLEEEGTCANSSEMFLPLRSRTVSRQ
Test: co-IP; BCL10 immunoprecipitated (anti-BCL10, protein G-sepharose, overnight, 4°C) from lysates of Jurkat cells transfected with nonspecific or PALS1 siRNA and stimulated with 1 µg/ml anti-CD3 and anti-CD28 for 0, 10, 20 min; lysis in 50 mM Tris pH 7.4, 150 mM NaCl, 1% Triton X-100, 1% Igepal, 2 mM EDTA; immunoblot for CARMA1 and MALT1

binding: binds
Substance: MALT1 (from UniProt Q9UDY8 1-824)
